From doi:10.1101/2023.08.07.552262
Results are given in words; binding and its absence hold for the method and conditions named. Binding seen in cells or lysates may run through a third protein. Some results given as binding are weak or reduced against the parent protein; the word gives no strength.

Chains of the proteins cited; added tags and fusions are not shown.
UniProt P39687: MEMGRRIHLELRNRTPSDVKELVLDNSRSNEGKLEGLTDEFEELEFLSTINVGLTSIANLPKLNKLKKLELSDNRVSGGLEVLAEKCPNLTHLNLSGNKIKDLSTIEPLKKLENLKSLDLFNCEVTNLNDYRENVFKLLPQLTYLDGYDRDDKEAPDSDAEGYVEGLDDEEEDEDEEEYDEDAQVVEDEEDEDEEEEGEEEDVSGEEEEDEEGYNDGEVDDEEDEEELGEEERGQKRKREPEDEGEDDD
UniProt Q15717: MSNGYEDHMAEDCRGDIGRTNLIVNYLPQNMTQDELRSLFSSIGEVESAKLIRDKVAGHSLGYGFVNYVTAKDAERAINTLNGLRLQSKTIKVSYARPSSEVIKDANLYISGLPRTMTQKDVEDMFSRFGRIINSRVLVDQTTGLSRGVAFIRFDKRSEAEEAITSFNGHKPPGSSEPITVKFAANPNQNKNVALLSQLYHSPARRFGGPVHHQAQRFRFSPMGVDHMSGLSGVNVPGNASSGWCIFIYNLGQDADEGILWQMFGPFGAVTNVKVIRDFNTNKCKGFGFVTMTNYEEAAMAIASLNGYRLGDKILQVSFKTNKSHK

Assays:
[1] = target: PHAPI (human (endogenous in HeLa)) (UniProt P39687); assay: co-IP
[2] = target: T1, Transportin-2 (human (endogenous in HeLa)) (UniProt O14787); assay: co-IP
T1 sequence: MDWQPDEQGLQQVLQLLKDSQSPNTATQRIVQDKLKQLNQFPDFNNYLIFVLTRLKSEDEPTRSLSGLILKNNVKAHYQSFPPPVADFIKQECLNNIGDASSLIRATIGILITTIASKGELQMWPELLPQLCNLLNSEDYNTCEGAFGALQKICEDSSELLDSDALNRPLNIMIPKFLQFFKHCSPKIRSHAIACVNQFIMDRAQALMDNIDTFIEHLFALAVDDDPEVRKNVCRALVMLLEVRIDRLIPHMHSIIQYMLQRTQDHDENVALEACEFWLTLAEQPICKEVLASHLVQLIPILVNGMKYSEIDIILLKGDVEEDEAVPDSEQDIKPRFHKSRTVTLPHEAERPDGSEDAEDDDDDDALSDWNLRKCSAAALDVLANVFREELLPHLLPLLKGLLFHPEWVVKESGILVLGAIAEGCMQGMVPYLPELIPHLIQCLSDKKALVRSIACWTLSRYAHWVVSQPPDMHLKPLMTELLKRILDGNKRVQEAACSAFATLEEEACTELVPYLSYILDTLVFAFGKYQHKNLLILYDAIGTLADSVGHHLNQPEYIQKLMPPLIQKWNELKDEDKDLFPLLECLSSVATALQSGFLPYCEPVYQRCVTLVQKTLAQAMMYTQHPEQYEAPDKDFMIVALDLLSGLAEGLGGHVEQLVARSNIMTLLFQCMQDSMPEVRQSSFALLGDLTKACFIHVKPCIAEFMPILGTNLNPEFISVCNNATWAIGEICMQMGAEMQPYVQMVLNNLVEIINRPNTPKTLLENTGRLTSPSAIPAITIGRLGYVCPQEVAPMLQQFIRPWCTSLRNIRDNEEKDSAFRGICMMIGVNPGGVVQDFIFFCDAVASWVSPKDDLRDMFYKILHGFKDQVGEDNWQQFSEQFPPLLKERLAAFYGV

GFP-HuR^wt (from UniProt Q15717 1-326)
binding [1]: binds
binding [2]: binds
